Measurements reported in PubChem BioAssay AID652272 (Drosophila RNAi Screening Center, 2013).
In all, the deposit lists about 21,000 reagents; this is an unselected part of those that have a named target and a result. Over the whole deposit, 503 (2.4%) got an active call. 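Raw plate light values, not normalised; calls rest on replicate z-scores that were not deposited; hits include reporter decreases as well as increases.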 A plus sign joins genes that one reagent is predicted to hit. Not given: the amount of reagent, the time to read-out.

- Purpose: 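Genome-wide knock-down search for components of Hedgehog signalling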 (primary screen)
- Cell system: Drosophila clone 8 (Cl8) cells
- Reagent: long dsRNA against Drosophila genes
- Detection: 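Plate reader light from a firefly reporter under a ptc promoter fragment that responds to Hedgehog, with Renilla light as transfection reference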
- Scale: firefly Hh reporter signal: higher = more ptc reporter light; Renilla reference signal: higher = more Renilla control light
- Hit rule: 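Hit when the z-score averaged over two replicates is under -2 or over +3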
- Calls: active = hit: reporter lowered or raised; inactive = not a hit

Depletion of Jon99Ciii [DRSC16859] resulted in: firefly Hh reporter signal, replicate 1 = 74924; firefly Hh reporter signal, replicate 2 = 60897; Renilla reference signal, replicate 1 = 2860; Renilla reference signal, replicate 2 = 3140; inactive.
With knock-down of sls [DRSC08528] the results were firefly Hh reporter signal, replicate 1 = 81691; firefly Hh reporter signal, replicate 2 = 71891; Renilla reference signal, replicate 1 = 4080; Renilla reference signal, replicate 2 = 3388; inactive.
Depletion of sls [DRSC08540] gave: firefly Hh reporter signal, replicate 1 = 94153; firefly Hh reporter signal, replicate 2 = 35120; Renilla reference signal, replicate 1 = 4016; Renilla reference signal, replicate 2 = 3552; inactive.
Against sls [DRSC08670] the deposit lists firefly Hh reporter signal, replicate 1 = 89413; firefly Hh reporter signal, replicate 2 = 43476; Renilla reference signal, replicate 1 = 1524; Renilla reference signal, replicate 2 = 3015; active.
Atg3 [DRSC10736] gave firefly Hh reporter signal, replicate 1 = 1.39e5; firefly Hh reporter signal, replicate 2 = 7.66e5; firefly Hh reporter signal, replicate 3 = 1.24e5; Renilla reference signal, replicate 1 = 5648; Renilla reference signal, replicate 2 = 40643; inactive.
XRCC1 [DRSC18729] gave firefly Hh reporter signal, replicate 1 = 1.25e5; firefly Hh reporter signal, replicate 2 = 66103; Renilla reference signal, replicate 1 = 2945; Renilla reference signal, replicate 2 = 1684; inactive.
Against CG1138 [DRSC12530] the deposit lists firefly Hh reporter signal, replicate 1 = 22176; firefly Hh reporter signal, replicate 2 = 60521; Renilla reference signal, replicate 1 = 801; Renilla reference signal, replicate 2 = 1682; inactive.
Depletion of CG43146 (retired record) [DRSC09254] came out at: firefly Hh reporter signal, replicate 1 = 2.75e5; Renilla reference signal, replicate 1 = 6477; inactive.
CG14664 [DRSC12250] showed firefly Hh reporter signal, replicate 1 = 87501; firefly Hh reporter signal, replicate 2 = 1.13e5; Renilla reference signal, replicate 1 = 3491; Renilla reference signal, replicate 2 = 3175; inactive.
Depletion of Tab2 [DRSC07481] gave: firefly Hh reporter signal, replicate 1 = 83714; firefly Hh reporter signal, replicate 2 = 59354; Renilla reference signal, replicate 1 = 1836; Renilla reference signal, replicate 2 = 3900; inactive.
For CG1113 [DRSC12163] the deposit lists firefly Hh reporter signal, replicate 1 = 68256; firefly Hh reporter signal, replicate 2 = 91819; Renilla reference signal, replicate 1 = 2690; Renilla reference signal, replicate 2 = 2513; inactive.
robl37BC [DRSC02472] showed firefly Hh reporter signal, replicate 1 = 98752; firefly Hh reporter signal, replicate 2 = 70754; Renilla reference signal, replicate 1 = 2736; Renilla reference signal, replicate 2 = 5813; inactive.
For CG9331 [DRSC03206], the entry reads firefly Hh reporter signal, replicate 1 = 1.48e5; firefly Hh reporter signal, replicate 2 = 1.05e5; Renilla reference signal, replicate 1 = 4796; Renilla reference signal, replicate 2 = 3991; inactive.
For Ipp [DRSC16718], the values are firefly Hh reporter signal, replicate 1 = 89585; firefly Hh reporter signal, replicate 2 = 68896; Renilla reference signal, replicate 1 = 1078; Renilla reference signal, replicate 2 = 1395; inactive.
For Scamp [DRSC20286] the deposit lists firefly Hh reporter signal, replicate 1 = 68217; firefly Hh reporter signal, replicate 2 = 1.75e5; Renilla reference signal, replicate 1 = 1975; Renilla reference signal, replicate 2 = 7107; inactive.
Against Vps53 [DRSC00595] the deposit lists firefly Hh reporter signal, replicate 1 = 83152; firefly Hh reporter signal, replicate 2 = 86472; Renilla reference signal, replicate 1 = 3666; Renilla reference signal, replicate 2 = 3242; inactive.
For BORCS7 + CG13430 [DRSC06392], the entry reads firefly Hh reporter signal, replicate 1 = 86736; firefly Hh reporter signal, replicate 2 = 63532; Renilla reference signal, replicate 1 = 3973; Renilla reference signal, replicate 2 = 2664; inactive.
Against BORCS7 + CG13430 [DRSC06707], the entry reads firefly Hh reporter signal, replicate 1 = 77148; firefly Hh reporter signal, replicate 2 = 47856; Renilla reference signal, replicate 1 = 2250; Renilla reference signal, replicate 2 = 3042; inactive.

2 entries from above, ordered by “Renilla reference signal, replicate 1”, descending.
Vps53 [DRSC00595] — firefly Hh reporter signal, replicate 1 = 83152; firefly Hh reporter signal, replicate 2 = 86472; Renilla reference signal, replicate 1 = 3666; Renilla reference signal, replicate 2 = 3242; Call = inactive
Scamp [DRSC20286] — firefly Hh reporter signal, replicate 1 = 68217; firefly Hh reporter signal, replicate 2 = 1.75e5; Renilla reference signal, replicate 1 = 1975; Renilla reference signal, replicate 2 = 7107; Call = inactive

More results:
Knock-down of AP-1gamma [DRSC18433] came out at: firefly Hh reporter signal, replicate 1 = 84418; firefly Hh reporter signal, replicate 2 = 1.50e5; Renilla reference signal, replicate 1 = 2763; Renilla reference signal, replicate 2 = 5719; inactive.
After knock-down of Pngl [DRSC04914] the results were firefly Hh reporter signal, replicate 1 = 1.07e5; firefly Hh reporter signal, replicate 2 = 87267; Renilla reference signal, replicate 1 = 2257; Renilla reference signal, replicate 2 = 7776; inactive.
Gr59b [DRSC04179] scored firefly Hh reporter signal, replicate 1 = 84208; firefly Hh reporter signal, replicate 2 = 54836; Renilla reference signal, replicate 1 = 1324; Renilla reference signal, replicate 2 = 4935; inactive.
With knock-down of CG30010 [DRSC05193] the results were firefly Hh reporter signal, replicate 1 = 98476; firefly Hh reporter signal, replicate 2 = 2.45e5; Renilla reference signal, replicate 1 = 2293; Renilla reference signal, replicate 2 = 9888; inactive.
After knock-down of yl [DRSC20387] the results were firefly Hh reporter signal, replicate 1 = 62244; firefly Hh reporter signal, replicate 2 = 1.74e5; Renilla reference signal, replicate 1 = 1696; Renilla reference signal, replicate 2 = 7370; inactive.
Knock-down of CG12511 [DRSC02171] gave: firefly Hh reporter signal, replicate 1 = 1.10e5; firefly Hh reporter signal, replicate 2 = 99649; Renilla reference signal, replicate 1 = 3211; Renilla reference signal, replicate 2 = 8779; inactive.
After knock-down of CG15107 [DRSC06534], the screen gave firefly Hh reporter signal, replicate 1 = 1.16e5; firefly Hh reporter signal, replicate 2 = 34998; Renilla reference signal, replicate 1 = 3154; Renilla reference signal, replicate 2 = 2167; inactive.
For Dcr-2 [DRSC06992] the deposit lists firefly Hh reporter signal, replicate 1 = 1.29e5; firefly Hh reporter signal, replicate 2 = 71719; Renilla reference signal, replicate 1 = 3469; Renilla reference signal, replicate 2 = 4901; inactive.
Silencing of CG30339 [DRSC05168] resulted in: firefly Hh reporter signal, replicate 1 = 1.15e5; firefly Hh reporter signal, replicate 2 = 2.56e5; Renilla reference signal, replicate 1 = 22900; Renilla reference signal, replicate 2 = 8496; inactive.
